No constants are given. Whether binding was seen depends on the method and setting. Some results given as binding are weak or reduced against the parent protein; the word gives no strength.

Protein sequences, listed by entry. Tags and fused reporters are not part of them. Lines headed by an entry give the natural chain unless they say otherwise; changes in a name come on top. Chains listed by the source or under a name are the forms on record and can include a tag or linker. Residues count along the entry.
UniProt P50284, residues 31-223: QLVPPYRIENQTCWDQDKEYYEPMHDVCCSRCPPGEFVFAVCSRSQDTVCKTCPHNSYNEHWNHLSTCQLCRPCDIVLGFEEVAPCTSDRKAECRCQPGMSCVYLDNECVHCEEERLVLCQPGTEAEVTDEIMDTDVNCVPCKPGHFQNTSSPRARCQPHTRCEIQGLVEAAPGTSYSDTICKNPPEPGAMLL
UniProt P25445: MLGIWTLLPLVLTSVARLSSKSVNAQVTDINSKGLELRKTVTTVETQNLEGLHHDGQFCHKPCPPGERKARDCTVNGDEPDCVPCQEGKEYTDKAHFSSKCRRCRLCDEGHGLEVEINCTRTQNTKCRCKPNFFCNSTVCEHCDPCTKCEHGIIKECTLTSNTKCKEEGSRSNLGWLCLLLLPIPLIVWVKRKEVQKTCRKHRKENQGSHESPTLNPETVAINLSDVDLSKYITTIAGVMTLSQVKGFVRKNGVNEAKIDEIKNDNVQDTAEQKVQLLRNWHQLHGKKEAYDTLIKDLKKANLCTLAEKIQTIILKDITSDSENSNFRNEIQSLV
Flag-human LIGHT (O43557, form named): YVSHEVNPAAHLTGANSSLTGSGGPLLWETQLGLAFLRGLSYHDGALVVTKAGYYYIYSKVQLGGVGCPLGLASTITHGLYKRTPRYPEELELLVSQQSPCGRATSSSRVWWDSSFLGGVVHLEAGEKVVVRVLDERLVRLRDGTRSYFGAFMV
mBTLA.Ig (Q7TSA3, form named): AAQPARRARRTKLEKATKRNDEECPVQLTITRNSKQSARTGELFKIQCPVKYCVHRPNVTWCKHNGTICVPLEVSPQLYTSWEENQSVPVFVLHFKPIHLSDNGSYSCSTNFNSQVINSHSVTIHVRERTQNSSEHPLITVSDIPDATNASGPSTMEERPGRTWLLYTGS

In assay [1] the target is mLTβR.hIgG1 (mouse) (UniProt P50284). Briefly: ELISA; Maxisorp plates coated with serial dilutions of mHVEM.IgG2a or mLTβR.hIgG1 (control tags mIgG2a and hIgG1); Flag-hLIGHT at a fixed 50 ng/well; detected with biotinylated anti-Flag M2 and SA-HRPO, TMB, absorbance at 450 nm; both purified. In general terms: An ELISA detects its analyte on a solid surface through an enzyme-linked reagent.

The target in assay [2] is T1, mHVEM:Fas (mouse | human, UniProt Q80WM9 39-206; P25445 169-335).
T1 chain: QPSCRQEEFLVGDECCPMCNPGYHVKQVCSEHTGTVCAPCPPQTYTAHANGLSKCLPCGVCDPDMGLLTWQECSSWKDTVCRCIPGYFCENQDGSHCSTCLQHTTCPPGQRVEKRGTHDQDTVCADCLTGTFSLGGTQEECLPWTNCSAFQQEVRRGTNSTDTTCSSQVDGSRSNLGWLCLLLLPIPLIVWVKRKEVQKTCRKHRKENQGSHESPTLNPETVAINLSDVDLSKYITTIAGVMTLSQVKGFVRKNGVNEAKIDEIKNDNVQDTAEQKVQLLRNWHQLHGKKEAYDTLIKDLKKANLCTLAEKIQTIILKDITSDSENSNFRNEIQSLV
Briefly: flow cytometry on cells; purified fusion proteins (1 µg/ml) added to mHVEM:hFas or mLTβR:hFas Jurkat cells in FACS buffer (PBS, 2% FCS, 0.5 mM EDTA), 37 °C, 1 h; detected with biotinylated anti-mIgG2a (R19-15) or anti-Flag (M2) and streptavidin-Alexa Fluor 647; parental Jurkat cells as control; only the binder purified. Background: A flow cytometer gives signals particle by particle.

Assay [3] has as its target mLTβR:Fas (mouse | human) (UniProt P50284+P25445). Described as above.

Take “Flag-human LIGHT (from UniProt O43557 89-240) (ligand)”: the binding result in assay [1] is reported as “binds”.
For the molecule “mBTLA.Ig (from UniProt Q7TSA3 30-184) (Fc fusion)”, the binding result in assay [2] is listed as “binds”.
As to “Ig.mLIGHT (from UniProt Q9QYH9 72-239) (Fc fusion)”, the results for the binding entry in assay [2] and in assay [3] were “binds” and “no binding (tested: 1 µg/ml)”, respectively.

B1: Ig.Foldon-mLIGHT (Fc fusion)
chain: GYIPEAPRDGQAYVRKDGEWVLLSTFLDGGKGSWEKLIQDQRSHQANPAAHLTGANASLIGIGGPLLWETRLGLAFLRGLTYHDGALVTMEPGYYYVYSKVQLSGVGCPQGLANGLPITHGLYKRTSRYPKELELLVSRRSPCGRANSSRVWWDSSFLGGVVHLEAGEEVVVRVPGNRLVRPRDGTRSYFGAFMV
B1: the binding result in assay [2] and in assay [3] was “binds” each time.

For the origin of these results see article PMC12287161, “A bioactive soluble recombinant mouse LIGHT promotes effective tumor immune cell infiltration delaying tumor growth” (Journal of Molecular Medicine (Berlin, Germany), 2025).
